In PubChem BioAssay AID1487 (National Center for Advancing Translational Sciences (NCATS), 2009):
The list shows a part of the results. Further columns of the screen follow, without active or inactive calls. The list favours compounds with an active or inconclusive main result. The note in brackets gives the kind of curve behind each potency; many fits are weak.

Experiment: qHTS Assay for Modulators of Lamin A Splicing
Conditions: HeLa LMNA splicing GFP/RFP minigene ratio, 48 h
Summary of the method: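 S3 HeLa cells stably expressing lamin A-EGFP splicing minigene plus DsRed2, 600 cells/well, 48 h compound exposure at 37C. Laser-scanning cytometry; analysed as GFP (500-530 nm)/RFP (575-640 nm) total intensity ratio; 0.5% DMSO vehicle.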

[1] = measured here: RFP viability control channel
[2] = measured here: GFP splicing reporter channel

## COc1ccccc1NC(=O)c1ccc(NC(=O)CSc2nnnn2C)cc1
[1]
  AC50: 6.31 µM [rising, single point]

## COCCNS(=O)(=O)c1ccc(-c2ccc(C)cc2)cc1
[1]
  AC50: 11.2 µM [rising, partial curve]

## CN(C)c1ccc(CNC(=O)c2ccc3c(c2)N(C)C(=O)C2CCCCN32)cc1 (configuration not stated)
[1]
  AC50: 20 µM [rising, partial curve, poor fit]

## O=C(c1cnc(N2CCOCC2)c2ccccc12)N1CCN(c2ccccc2F)CC1
[2]
  AC50: 35.5 µM [falling, partial curve]
[1]
  AC50: 0.178 µM [falling, full curve, poor fit]

## O=c1nc2cccc3c2=c(/c1=C(\O)c1ccccc1)c1ccccc1c3=O
[2]
  AC50: 0.158 µM [falling, full curve, poor fit]

## Cc1cc(/C=C2/NC(=O)N(Cc3ccccc3F)C2=O)c(C)n1C(C)C
[2]
  AC50: 0.0794 µM [rising, partial curve, poor fit]
[1]
  AC50: 12.6 µM [rising, single point]

## COc1ccc(N2C(=O)CS(=O)(=O)C23C(=O)N(Cc2c(F)cccc2Cl)c2ccccc23)cc1 (configuration not stated)
[2]
  AC50: 0.794 µM [rising, partial curve]

## C/C(=N/NC(=O)c1sc(NS(=O)(=O)c2ccc(C)cc2)nc1C)c1sc(N)nc1C
[1]
  AC50: 0.501 µM [falling, full curve, poor fit]

## Cn1c(-c2ccc(F)cc2)cnc1SCC(=O)NNC(=O)Cc1ccccc1
[1]
  AC50: 6.31 µM [falling, partial curve, poor fit]

## Fc1cccc(/C=N/Nc2ccccn2)c1
[2]
  AC50: 0.158 µM [falling, full curve, poor fit]
[1]
  AC50: 0.158 µM [falling, full curve, poor fit]

## COc1ccc(-c2nn(-c3ccccc3)cc2/C=N/NC(N)=S)cc1OC
[2]
  AC50: 35.5 µM [falling, single point]
[1]
  AC50: 35.5 µM [falling, single point]

## Cc1ccc2c(c1)c1ncnc(N3CCc4ccccc4C3)c1n2C
[2]
  AC50: 12.6 µM [rising, single point]
[1]
  AC50: 22.4 µM [rising, single point]

## Cc1ccccc1C(=O)NC(C(=O)Nc1nc2c(s1)CCCC2)C(C)C (configuration not stated)
[1]
  AC50: 12.6 µM [rising, single point]

## Cc1ccccc1OCCNc1ccc(C(F)(F)F)cc1[N+](=O)[O-]
[2]
  AC50: 14.1 µM [falling, single point]
[1]
  AC50: 10 µM [falling, partial curve]

## Cc1c(C(=O)OCC(=O)N2c3ccccc3CC2C)oc2ccccc12 (configuration not stated)
[2]
  AC50: 14.1 µM [rising, single point]

## O=C1c2cccc3c([N+](=O)[O-])ccc(c23)C(=O)N1c1nccs1
[2]
  AC50: 22.4 µM [falling, single point]

## CC(=O)Nc1cccc(C(=O)OCC(=O)c2ccccc2Cl)c1
[2]
  AC50: 112 µM [falling, partial curve, poor fit]

## O=c1c2ccccc2nc(SCc2nnc(-c3ccccc3Br)o2)n1Cc1ccco1
[1]
  AC50: 22.4 µM [rising, partial curve]

## CC(C)Oc1ccc(CNC(=O)c2ccccc2NC(=O)c2nsc3ccccc23)cc1
[2]
  AC50: 1.78 µM [rising, single point]
[1]
  AC50: 2.24 µM [rising, partial curve, poor fit]

## CC(=O)Oc1cccc(C)c1
[2]
  AC50: 2.82 µM [falling, partial curve, poor fit]
[1]
  AC50: 35.5 µM [falling, single point]

## O=C(CCn1c(=S)[nH]c2ccccc2c1=O)NCCSCc1ccccc1
[2]
  AC50: 14.1 µM [falling, single point]
[1]
  AC50: 35.5 µM [falling, single point]

## CC(C)Oc1cccc(-c2cc(C(=O)N3CCN(S(C)(=O)=O)CC3)c3ccccc3n2)c1
[2]
  AC50: 10 µM [rising, partial curve, poor fit]
[1]
  AC50: 11.2 µM [rising, partial curve]

## C=CCN(C(=O)Nc1ccc2oc(C)nc2c1)c1ccccc1
[2]
  AC50: 35.5 µM [rising, single point]
[1]
  AC50: 14.1 µM [rising, partial curve, poor fit]

## Cc1ccc(/C=C2\C(=O)ON=C2c2ccccc2)o1
[1]
  AC50: 0.0891 µM [falling, full curve, poor fit]

## Cc1ccc(C(=O)c2ccccc2C(=O)OCC(=O)Nc2ccc(SC(F)F)cc2)cc1
[1]
  AC50: 5.62 µM [rising, partial curve]

## COc1ccc(NC(=O)C2CC(=O)N=C(N)S2)cc1 (configuration not stated)
[2]
  AC50: 5.62 µM [rising, single point]

## Cc1ccccc1C=Nc1ccccc1C(N)=O
[1]
  AC50: 7.08 µM [rising, partial curve]

## CCOC(=O)c1c(NC(=O)c2ccco2)n(C2CCCCC2)c2nc3ccccc3nc12
[2]
  AC50: 12.6 µM [rising, partial curve]
[1]
  AC50: 11.2 µM [rising, partial curve]

## COc1ccc(/C=N/NS(=O)(=O)c2ccccc2)cc1OS(=O)(=O)c1ccc(C)cc1
[1]
  AC50: 35.5 µM [rising, single point]

## O=C(Nc1cccnc1)c1sc2cccc(F)c2c1Cl
[2]
  AC50: 7.08 µM [rising, full curve, poor fit]

## CCCc1nn(C)c(C(=O)Nc2ccc(CC)cc2)c1Cl
[1]
  AC50: 1 µM [rising, full curve, poor fit]

## N=c1c2c(-c3ccccc3)c(-c3ccccc3)oc2ncn1CCN1CCOCC1
[2]
  AC50: 11.2 µM [rising, partial curve]
[1]
  AC50: 17.8 µM [rising, single point]

## Cc1cccc(C)c1NC(=S)Nc1ccc(F)cc1
[2]
  AC50: 1.78 µM [falling, partial curve]
[1]
  AC50: 2 µM [falling, full curve, poor fit]

## CC1CCC2(CC1)NC(=S)N(c1ccccc1)N2 (configuration not stated)
[1]
  AC50: 25.1 µM [falling, single point]

## Clc1cccc(Nc2ncnc3c2cnn3-c2ccccc2)c1
[2]
  AC50: 22.4 µM [rising, single point]
[1]
  AC50: 22.4 µM [rising, partial curve, poor fit]

## CC(Oc1ccc(Cl)cc1Cl)c1nc(-c2ccc(NC(=O)c3ccco3)cc2)no1 (configuration not stated)
[1]
  AC50: 11.2 µM [rising, single point]

## Cc1ccc(-n2ncc3c(N4CCCCCC4)ncnc32)cc1C
[2]
  AC50: 7.08 µM [falling, full curve]

## O=C(COc1ccccc1)N1CCN(c2ncnc3c2cnn3-c2ccccc2)CC1
[1]
  AC50: 31.6 µM [rising, single point]

## Cc1cc(NC(=O)c2sccc2C)n(-c2nc3ccccc3[nH]2)n1
[2]
  AC50: 2.82 µM [falling, single point]
[1]
  AC50: 35.5 µM [falling, single point]

## CCc1ccc(-c2cn3c(n2)sc2cc(C(=O)NC4CCCCC4)ccc23)cc1
[2]
  AC50: 17.8 µM [rising, partial curve]
[1]
  AC50: 12.6 µM [rising, single point]

## CC1CCN(C(=O)CN(c2ccc(Oc3ccccc3)cc2)S(C)(=O)=O)CC1
[2]
  AC50: 15.8 µM [rising, partial curve, poor fit]
[1]
  AC50: 11.2 µM [rising, partial curve]

## NCCO/C=C/[C@H](N)C(=O)O
[2]
  AC50: 0.00282 µM [falling, full curve, poor fit]
[1]
  AC50: 0.00398 µM [falling, full curve, poor fit]

## COCCNc1oc(-c2ccccc2)nc1S(=O)(=O)c1ccc(Br)cc1
[2]
  AC50: 0.708 µM [falling, full curve, poor fit]
[1]
  AC50: 0.158 µM [falling, full curve, poor fit]

## Cc1cccc(-n2cc(-c3ccccc3)c3c(N4CCOCC4)ncnc32)c1
[2]
  AC50: 2.82 µM [falling, partial curve]
[1]
  AC50: 20 µM [falling, single point]

## c1ccc2sc(C3CCN(Cc4nnnn4Cc4ccc5c(c4)OCO5)CC3)nc2c1
[2]
  AC50: 0.0501 µM [rising, full curve, poor fit]
[1]
  AC50: 14.1 µM [rising, partial curve, poor fit]

## COc1ccc(S(=O)(=O)Nc2ccccc2OC)cc1NC(=O)Cc1cccs1
[1]
  AC50: 14.1 µM [rising, single point]

## COc1ccc2sc(N(Cc3cccnc3)C(=O)c3ccc4c(c3)OCCO4)nc2c1
[2]
  AC50: 25.1 µM [rising, single point]
[1]
  AC50: 31.6 µM [rising, single point]

## O=C(CSc1ncn[nH]1)Nc1cccc(S(=O)(=O)N2CCCCCC2)c1
[1]
  AC50: 11.2 µM [rising, partial curve]

## COC(=O)c1c(N)sc2c1CCN(c1ncc(C(F)(F)F)cc1Cl)C2
[1]
  AC50: 12.6 µM [rising, single point]

## COc1ccc(CC(=O)N2CCc3cc(OC)c(OC)cc3C2COc2cc(C)cc(C)c2)cc1OC (configuration not stated)
[1]
  AC50: 0.0282 µM [rising, full curve, poor fit]

## Oc1ccccc1-c1nc(NCCN2CCOCC2)c2ccccc2n1
[1]
  AC50: 10 µM [rising, partial curve, poor fit]

## O=C(CCNC(=O)c1ccc([N+](=O)[O-])cc1)N/N=C/c1ccc(F)cc1
[1]
  AC50: 0.00316 µM [falling, full curve]

## COC(=O)c1[nH]c2ccc(F)cc2c1NS(=O)(=O)c1ccc(F)c(C)c1
[2]
  AC50: 1.58 µM [falling, partial curve, poor fit]
[1]
  AC50: 2 µM [falling, partial curve, poor fit]
